Positions count from the first letter of the chain named. No constants are given. Whether binding was seen depends on the method and setting. Some entries that bind do so weakly or less than the wild type.

Chains of the proteins cited; added tags and fusions are not shown. Residues count along the entry.
UniProt P05067, residues 672-713: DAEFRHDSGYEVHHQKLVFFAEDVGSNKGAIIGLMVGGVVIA

Assay [1] concerns the target Aβ-derived diffusible ligands (synthetic ADDLs), soluble oligomers of amyloid β1-42. The experiment in a line: immunoblot of ADDLs after native gel electrophoresis (column Identified Native ADDLs); immunofluorescence of ADDLs bound to cultured hippocampal cells (column Immunofluorescence). (In general: Immunoblotting shows a protein as a band on a membrane.)
The target of assay [2] is endogenous fibrils obtained from human tissue (human) (UniProt P05067). The experiment in a line: western immunoblot of endogenous human fibrils after SDS-PAGE (column DENATURED SPECIES …: Human Fibrils).
Assay [3] concerns the target Aβ-derived diffusible ligands (synthetic ADDLs), soluble oligomers of amyloid β1-42. The experiment in a line: immunocytochemistry of ADDLs bound to hippocampal cells.
Assay [4] addresses tetramers of ADDLs (multi-dimensional conformation of soluble amyloid β1-42 oligomers, as defined by SDS-PAGE) (UniProt P05067). The experiment in a line: recognition of ADDL species defined by SDS-PAGE (see FIG. 3).
Assay [5] concerns the target higher molecular weight oligomers of the ADDL preparation. In words: western immunoblot of ADDLs after SDS-PAGE (column DENATURED SPECIES …: HMW ADDLs).
The target in assay [6] is biotinylated ADDLs (bADDLs), oligomers prepared from N-terminal biotinylated amyloid β1-42. In words: titration ELISA on streptavidin-captured 10% biotinylated ADDL.

B1: murine anti-ADDL monoclonal antibody 2D6 (antibody, mouse IgG1, V domains shown)
VH: QVTLKESGPGILKPSQTLSLTCSFSGFSLSTSGMGVGWIRQPSGKGLEWLAHIWWDDDKYYNPSLKSQLTISKDTSRNQVFLKITSVDTADTATYYCARRSISTVIPEDYFDYWGQGTILTVSS
VL: DVLMTQTPLSLTVSLGDQASISCRSSQSIVHSNGNTYLEWYLQKPGQSPKLLIYKVSNRFSGVPDRFSGSGSGTDFTLKISRVEAEDLGVYYCFQGSHVPLTFGAGTKLELK
Turning to B1, the binding entry in assay [1], in assay [2], in assay [3], in assay [4] and in assay [5] was “binds” each time.

B2: humanized 20C2 version A, CDR grafted, IgG2m4/kappa (antibody)
heavy: QVTLKESGPALVKPTQTLTLTCTFSGFSLSTSGMGVGWIRQPPGKALEWLAHIWWDDDKSYNPSLKSRLTISKDTSKNQVVLTMTNMDPVDTATYYCARRQLGLRSIDAMDYWGQGTTVTVSSASTKGPSVFPLAPCSRSTSESTAALGCLVKDYFPEPVTVSWNSGALTSGVHTFPAVLQSSGLYSLSSVVTVTSSNFGTQTYTCNVDHKPSNTKVDKTVERKCCVECPPCPAPPVAGPSVFLFPPKPKDTLMISRTPEVTCVVVDVSQEDPEVQFNWYVDGVEVHNAKTKPREEQFNSTFRVVSVLTVLHQDWLNGKEYKCKVSNKGLPSSIEKTISKTKGQPREPQVYTLPPSREEMTKNQVSLTCLVKGFYPSDIAVEWESNGQPENNYKTTPPMLDSDGSFFLYSKLTVDKSRWQQGNVFSCSVMHEALHNHYTQKSLSLSPGK
light: DVVMTQSPLSLPVTPGEPASISCRSSQSILHSNGNTYLEWYLQKPGQSPQLLIYKVSNRFSGVPDRFSGSGSGTDFTLKISRVEAEDVGVYYCFQGSLVPLTFGQGTKLEIKRTVAAPSVFIFPPSDEQLKSGTASVVCLLNNFYPREAKVQWKVDNALQSGNSQESVTEQDSKDSTYSLSSTLTLSKADYEKHKVYACEVTHQGLSSPVTKSFNRGEC
Regarding B2, the binding entry in assay [6] is reported as “binds”.

B3: humanized 20C2 version B, CDR grafted, IgG2m4/kappa (antibody)
heavy: B2 heavy with F24L
light: B2 light
On to B3, for which, in assay [6], the binding entry is “binds”.

B4: humanized 26D6, veneered, HCVR Ven1 IgG1 with LCVR Ven1 Kappa (antibody, V domains shown)
VH: QVTLKESGPGIVQPSQTLSLTCSFSGFSLSTSGMGVSWIRQPSGKGLEWLAHIYWDDDKQYNPSLKSRLTISKDTSKNQVFLTITSVDTVDTATYYCVRRASSSRYDDQFDYWGQGTPLTVSS
VL: DVVMTQTPLSLPVSLGDPASISCRASQSIVHSNGNTYLEWYLQKPGQSPKLLIYRVSNRFSGVPDRFSGSGSGTDFTLKISRVEAEDLGVYFCFQVTHVPLTFGAGTKLELKR
As for B4, the binding result in assay [6] is “binds”.

B5: humanized 26D6, veneered, HCVR Ven3 IgG1 with LCVR Ven2 Kappa (antibody, V domains shown)
VH: B4 VH with I11L, Q13K, S15T, F81V, T89P, P118L
VL: B4 VL with L88V, A105G
Turning to B5, the binding result in assay [6] is listed as “binds”.

B6: humanized 26D6, veneered, HCVR Ven1 IgG1 with LCVR Ven2 Kappa (antibody, V domains shown)
VH: B4 VH
VL: B4 VL with L88V, A105G
For B6, the binding entry in assay [6] is listed as “binds”.

B7: humanized 26D6, veneered, HCVR Ven3 IgG1 with LCVR Ven1 Kappa (antibody, V domains shown)
VH: B4 VH with I11L, Q13K, S15T, F81V, T89P, P118L
VL: B4 VL
B7: the binding result in assay [6] is on record as “binds”.

B8: humanized 26D6, veneered, HCVR Ven2 IgG1 with LCVR Ven2 Kappa (antibody, V domains shown)
VH: B4 VH with I11L, Q13K, S15T, T89P
VL: B4 VL with L88V, A105G
In the case of B8, in assay [6], the binding result is reported as “binds”.

B9: humanized 26D6, veneered, HCVR Ven2 IgG1 with LCVR Ven1 Kappa (antibody, V domains shown)
VH: B4 VH with I11L, Q13K, S15T, T89P
VL: B4 VL
For B9, the binding result in assay [6] is reported as “binds”.

These data come from patent publication US20110159013A1.
